The values that follow come from paper PMC7819943, “Rice protein-binding microarrays: a tool to detect cis-acting elements near promoter regions in rice”.

Some of the results follow.

In the assay the target is T1, OsSMF1 (Oryza sativa, UniProt Q6ZLB0 1-436).
T1 sequence: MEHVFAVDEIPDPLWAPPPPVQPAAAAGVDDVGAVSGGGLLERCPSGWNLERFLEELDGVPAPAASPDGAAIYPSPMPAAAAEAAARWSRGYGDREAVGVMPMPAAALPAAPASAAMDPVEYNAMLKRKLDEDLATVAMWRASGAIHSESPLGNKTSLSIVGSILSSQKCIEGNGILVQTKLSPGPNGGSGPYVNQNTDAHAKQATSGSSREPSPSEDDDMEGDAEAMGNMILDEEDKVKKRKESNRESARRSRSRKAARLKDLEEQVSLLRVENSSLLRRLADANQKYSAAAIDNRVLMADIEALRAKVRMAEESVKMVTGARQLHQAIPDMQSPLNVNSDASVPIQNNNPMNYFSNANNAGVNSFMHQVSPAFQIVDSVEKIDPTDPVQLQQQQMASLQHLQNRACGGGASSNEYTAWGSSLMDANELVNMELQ
The assay is described as follows: protein-binding microarray (RPBM); PBS, 2% BSA, 51.3 ng/ul salmon testes DNA, 50 uM zinc acetate, 200 nM TF, 25 C, 1 h; high values mean tight binding. The note with it: protein: recombinant; tags: N-terminal polyhistidine and DsRed monomer fusion (pET32a); chain copies: 2; label: CyDye5-dUTP incorporated in the synthesized complementary strand; 3' TTTTT single-stranded linker to array surface; dsDNA, one strand shown. Summed up: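 The binding signal is fluorescence intensity per array feature (arbitrary units). Readings came from an Axon 4000B scanner after a washed, 2% BSA-blocked, double-stranded custom Agilent array had been incubated for 1 h at 25 °C with 200 nM protein and 50 µM zinc acetate. The protein was a Ni–NTA-purified transcription factor fused N-terminally to polyhistidine and DsRed, expressed in E. coli BL21-CodonPlus.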
Consider “CTCCACCACCTGCGCGCCGCGGCCAGCGCCGCAGTAGACCCGGAGTCACCTAGTGCAG”, for which the binding signal was 3480 fluorescence intensity (a.u.).
The figure for “CATATTCTGATATTCCCATCCACGTCAGCATTTCCCCACCCGGAGTCACCTAGTGCAG” is 41000 fluorescence intensity (a.u.); for “TCTACCCGCTCCACGCCGCCTCGTCATCCCTTCATTACTACGGAGTCACCTAGTGCAG” it is 5230 fluorescence intensity (a.u.); for “CATAACAGTTTTATGGCTATCATCAATTTTATTTTGTCCGCGGAGTCACCTAGTGCAG” it is 3370 fluorescence intensity (a.u.).
The figure for “TTCTATATGTTTGTGACAGCACAAATAATATCTTGAGGATCGGAGTCACCTAGTGCAG” is 3210 fluorescence intensity (a.u.).
Consider “CTGCATTGTGGTTGATCCACGTCATCAAAATGAATGCCAGCGGAGTCACCTAGTGCAG”, for which the binding signal was 12600 fluorescence intensity (a.u.).
The value for “CTGAGGCCTTTGGGCGCCACGCCACGCGATGCATGCTCGACGGAGTCACCTAGTGCAG” was 6920 fluorescence intensity (a.u.).
With “CGGTGAGATTATAAAATGCCACGTGGCAATCTAAGAGCGTCGGAGTCACCTAGTGCAG”, the binding signal was 29100 fluorescence intensity (a.u.).
The value for “TCCTCGACCGGCACGTCCATCATCACACGTAGACTCAGAACGGAGTCACCTAGTGCAG” was 5590 fluorescence intensity (a.u.).
The value for “TCGTCTCCTCCGCCGCCACGTCCCCGAGCCCCGCGTCCTGCGGAGTCACCTAGTGCAG” was 10300 fluorescence intensity (a.u.).
The value for “CGTAACACAATATATGACGTACATCCATCCACTCAACCCACGGAGTCACCTAGTGCAG” was 3380 fluorescence intensity (a.u.); that for “AGGTAATGTATCATAAAACTATAGATTTAACACTAAATTTCGGAGTCACCTAGTGCAG” was 53000 fluorescence intensity (a.u.); that for “AGCAGTACTGTCCACCGTGAGGCCCCACGCGCCATTGTCGCGGAGTCACCTAGTGCAG” was 3320 fluorescence intensity (a.u.).
Consider “TGATTTCTCCACTGACTCATCCCCATCATCTCCTCTTCTGCGGAGTCACCTAGTGCAG”, for which the binding signal was 8710 fluorescence intensity (a.u.).
For the sequence “CCTCCAGGCCTCCAGCTACTACGCGTCGTGGCTTCTCGCGCGGAGTCACCTAGTGCAG”, the binding signal was 3420 fluorescence intensity (a.u.).
The value for “TATATGCTTTTGGAACTTTGTTGCTTTGATTATGTGATGTCGGAGTCACCTAGTGCAG” was 25500 fluorescence intensity (a.u.).
Consider “TCGGCGGCGAACTTCCCCGCCGACGTGCCAGATCTCAAACCGGAGTCACCTAGTGCAG”, for which the binding signal is 4610 fluorescence intensity (a.u.).
The figure for “CAACTAGTTGCTGACCAAGCACAGAAGCACTGTAATGAGTCGGAGTCACCTAGTGCAG” is 6800 fluorescence intensity (a.u.); for “TCATCCCAGCTACAGCCTGACGCAGCTATAAATATCTCGTCGGAGTCACCTAGTGCAG” it is 3610 fluorescence intensity (a.u.); for “GCCGAGCTCTCCTTTCCGCGCTGTAACTGCAATGCAGCGTCGGAGTCACCTAGTGCAG” it is 3300 fluorescence intensity (a.u.).
On to “ACCTAGCTACCACTAGTAGCGTCGTCGTCATCGTCGTCGTCGGAGTCACCTAGTGCAG”, for which the binding signal was 3560 fluorescence intensity (a.u.).
The figure for “ATGGTTTAGAGGGTTGTTGTCAGGATGACTAGCATTGAGTCGGAGTCACCTAGTGCAG” is 3420 fluorescence intensity (a.u.); for “GTTGTTCGCACATGTTTAGTGCCACGTTACTAGTTTAATTCGGAGTCACCTAGTGCAG” it is 3860 fluorescence intensity (a.u.).
The figure for “TCCCCGATGAGTGGGTGTTTTAATTGCTCCCTGTTGATATCGGAGTCACCTAGTGCAG” is 3210 fluorescence intensity (a.u.); for “TCACATGATGTCTTGGATGTTGTGTAGAAATTCTCTTTCCCGGAGTCACCTAGTGCAG” it is 3560 fluorescence intensity (a.u.).
The value for “TAGTCTCAGAAACAGGACGTGTGTAATCTGGATTCTGGACCGGAGTCACCTAGTGCAG” was 4450 fluorescence intensity (a.u.); that for “ATGGATGGGAGGTCAATCTTGATGGGCCGTTATGAGGTTGCGGAGTCACCTAGTGCAG” was 35300 fluorescence intensity (a.u.).
Take “CCTCGTCGCCGCGTCACGGCGTCAGCTCGCCGCTCTAGGGCGGAGTCACCTAGTGCAG”: the binding signal was 4820 fluorescence intensity (a.u.).
The figure for “TGTGGTGGTGCTGTACACGTTGTGTGTGTGTGTTCGATGTCGGAGTCACCTAGTGCAG” is 5140 fluorescence intensity (a.u.); for “AGGGAGTTTGCGGACACGGCGGCGGCACCGCGGATCTGTTCGGAGTCACCTAGTGCAG” it is 37000 fluorescence intensity (a.u.); for “AGACCCTGTCCTCCTCCGTCCACGCAGACGCCGGCCTCAACGGAGTCACCTAGTGCAG” it is 3280 fluorescence intensity (a.u.).
Take “CTCTGGCGATGTGGCGTCTGGTCAAATTCATTGTCTCTACCGGAGTCACCTAGTGCAG”: the binding signal is 47900 fluorescence intensity (a.u.).
The figure for “AAGTTGGTACTCCTGTATGAATCATCAGTCTGAACTTGACCGGAGTCACCTAGTGCAG” is 4620 fluorescence intensity (a.u.); for “ATTCCGGCTCATGTTTTACGCCACGCAGTCCTCCTCCTTCCGGAGTCACCTAGTGCAG” it is 5080 fluorescence intensity (a.u.); for “GCCTTGCATCCGCGCTACAGTGGGTCATCGTCTTCACTGCCGGAGTCACCTAGTGCAG” it is 3220 fluorescence intensity (a.u.).
The figure for “TGCGTGCGAGTTGGCTGACTCGATCTCGATTACTGCTCACCGGAGTCACCTAGTGCAG” is 5600 fluorescence intensity (a.u.).
Consider “TGCCATCCTGACCCACATGTCATTGACTAATATGAGTCCTCGGAGTCACCTAGTGCAG”, for which the binding signal is 3580 fluorescence intensity (a.u.).
The value for “GGCGTTCAGCAACCCGTGCATCATCCACGGTGTGTGCGGCCGGAGTCACCTAGTGCAG” was 3590 fluorescence intensity (a.u.).
The value for “TTATTTGTCCTGCTGCGTGCCGACGATGTTGTTGACGTGTCGGAGTCACCTAGTGCAG” was 13700 fluorescence intensity (a.u.); that for “ATTCGTAGTATTAGAATGTGTCACATCCAATATTAGGTTGCGGAGTCACCTAGTGCAG” was 3440 fluorescence intensity (a.u.); that for “AACTCGGTGGTGACCACGCGTCCACATCTCTCATCTTTCTCGGAGTCACCTAGTGCAG” was 3720 fluorescence intensity (a.u.).
The value for “GGTCACTCATCACAGTCACAGATCGACGGCGACACAGCTGCGGAGTCACCTAGTGCAG” was 4930 fluorescence intensity (a.u.).
